Test results reported in patent publication US20080293824A1, “Pesticidal substituted piperidines” (priority 2005, published 2008).
Some entries share one result that the patent states for a list of compounds.

These compounds were tested on Rhipicephalus sanguineus (assay: Screening method to test contact activity against Rhipicephalus sanguineus (brown dog tick) larvae on treated filter paper). Conditions: test concentration 1000 ppm; larvae (L1) on treated filter paper; 25° C., 90% RH; assessed 24 hours after application versus untreated control.
Type: in vivo

| SMILES | contact control of Rhipicephalus sanguineus |
| --- | --- |
| CC(=O)c1ccc(Oc2ccccc2)cc1 [Compound 04-01] | at least 70% |
| N#Cc1ccc(OCc2ccccc2)cc1Cl [Compound 01-81] | at least 70% |
| CC(=O)c1ccc(Oc2ccc(Cl)cc2)cc1 [Compound 04-13] | at least 70% |
